These results are taken from article doi:10.1101/613612.

The target in the assay is T1, PIP2a-2xStrep-FLAG (Arabidopsis thaliana) (UniProt P43286).
T1 sequence: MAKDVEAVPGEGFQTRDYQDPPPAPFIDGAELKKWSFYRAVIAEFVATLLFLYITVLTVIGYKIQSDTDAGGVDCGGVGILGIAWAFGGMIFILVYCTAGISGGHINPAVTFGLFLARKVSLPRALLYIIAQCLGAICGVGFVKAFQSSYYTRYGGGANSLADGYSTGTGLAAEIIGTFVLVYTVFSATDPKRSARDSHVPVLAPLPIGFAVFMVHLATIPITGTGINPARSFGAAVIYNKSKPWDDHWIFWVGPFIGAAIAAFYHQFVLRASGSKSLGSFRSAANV
In words: affinity purification with mass spectrometry.

These are yes or no findings as the source states them, for the method shown. Binding seen in cells or lysates may run through a third protein. Here binding means that the protein was enriched with, or labelled near, the bait; the list need not be complete. No binding means not detected with the bait. Tags and fused reporters may be left off the sequences shown.

With “NbPP2C6 (N. benthamiana (endogenous in leaves)) (enzyme)”, the binding result is “no binding”.
